Source: paper PMC9640553
These are yes or no findings as the source states them, for the method shown. In cells and extracts the contact can be indirect. Some binding calls cover weakened binding; strength is not graded here. Sequences can lack the tags named with a protein. Each block holds one binder with its values, some of them ahead of it.

Tests used:
ATAD3-HA [1] = target: T1, ATAD3-HA (UniProt Q925I1); experiment: co-IP; steady state; 500 µg total protein extract in IP buffer (HEPES KOH pH 7.2, 150 mM NaCl, 1 mM MgCl2, 1% Triton), anti-V5, anti-VPS35 or anti-HA overnight at 4 °C, Protein-G agarose, western blot
T1 sequence: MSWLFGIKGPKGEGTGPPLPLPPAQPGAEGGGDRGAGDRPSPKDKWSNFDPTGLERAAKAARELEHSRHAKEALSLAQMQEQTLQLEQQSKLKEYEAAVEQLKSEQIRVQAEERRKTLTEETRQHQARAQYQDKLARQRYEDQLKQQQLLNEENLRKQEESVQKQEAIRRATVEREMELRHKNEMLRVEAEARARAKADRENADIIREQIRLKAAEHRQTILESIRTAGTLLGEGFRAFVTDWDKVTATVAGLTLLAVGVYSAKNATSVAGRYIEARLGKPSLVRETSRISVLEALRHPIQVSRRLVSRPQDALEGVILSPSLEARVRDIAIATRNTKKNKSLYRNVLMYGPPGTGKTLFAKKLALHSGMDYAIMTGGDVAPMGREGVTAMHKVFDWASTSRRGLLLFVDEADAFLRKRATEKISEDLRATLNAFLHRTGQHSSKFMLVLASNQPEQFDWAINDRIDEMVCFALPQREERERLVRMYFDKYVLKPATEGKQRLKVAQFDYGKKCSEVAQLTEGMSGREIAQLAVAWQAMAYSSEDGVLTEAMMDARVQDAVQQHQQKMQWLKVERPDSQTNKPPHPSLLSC

Twinkle-K320E-APEX2-V5 = target: T2, Twinkle-K320E-APEX2-V5 (UniProt Q8CIW5); experiment: as above
T2 sequence: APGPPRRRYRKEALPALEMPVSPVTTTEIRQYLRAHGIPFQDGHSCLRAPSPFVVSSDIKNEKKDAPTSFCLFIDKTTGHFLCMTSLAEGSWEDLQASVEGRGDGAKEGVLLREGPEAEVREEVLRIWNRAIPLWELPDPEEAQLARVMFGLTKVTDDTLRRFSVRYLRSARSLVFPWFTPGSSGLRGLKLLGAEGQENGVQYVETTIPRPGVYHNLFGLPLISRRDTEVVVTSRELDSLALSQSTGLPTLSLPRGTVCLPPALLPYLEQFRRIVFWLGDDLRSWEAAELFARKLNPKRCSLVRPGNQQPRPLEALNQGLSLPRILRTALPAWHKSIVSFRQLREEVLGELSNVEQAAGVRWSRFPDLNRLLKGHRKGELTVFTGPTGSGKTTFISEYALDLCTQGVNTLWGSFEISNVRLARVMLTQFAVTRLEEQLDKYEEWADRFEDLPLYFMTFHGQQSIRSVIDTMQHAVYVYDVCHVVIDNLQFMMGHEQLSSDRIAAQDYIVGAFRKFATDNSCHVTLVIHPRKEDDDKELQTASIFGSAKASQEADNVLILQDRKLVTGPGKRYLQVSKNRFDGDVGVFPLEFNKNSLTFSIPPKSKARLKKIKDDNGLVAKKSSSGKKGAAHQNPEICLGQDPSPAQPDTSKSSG

ATAD3-HA [2] = target: T1, ATAD3-HA; experiment: co-IP; cells treated with EtBr (mtDNA damage) before lysis; 500 µg total protein extract in IP buffer (HEPES KOH pH 7.2, 150 mM NaCl, 1 mM MgCl2, 1% Triton), anti-V5 or anti-HA overnight at 4 °C, Protein-G agarose, western blot
SAMM50-HA = target: T3, SAMM50-HA (UniProt Q8BGH2); experiment: co-IP; steady state; 500 µg total protein extract in IP buffer (HEPES KOH pH 7.2, 150 mM NaCl, 1 mM MgCl2, 1% Triton), anti-V5, anti-VPS35 or anti-HA overnight at 4 °C, Protein-G agarose, western blot
T3 sequence: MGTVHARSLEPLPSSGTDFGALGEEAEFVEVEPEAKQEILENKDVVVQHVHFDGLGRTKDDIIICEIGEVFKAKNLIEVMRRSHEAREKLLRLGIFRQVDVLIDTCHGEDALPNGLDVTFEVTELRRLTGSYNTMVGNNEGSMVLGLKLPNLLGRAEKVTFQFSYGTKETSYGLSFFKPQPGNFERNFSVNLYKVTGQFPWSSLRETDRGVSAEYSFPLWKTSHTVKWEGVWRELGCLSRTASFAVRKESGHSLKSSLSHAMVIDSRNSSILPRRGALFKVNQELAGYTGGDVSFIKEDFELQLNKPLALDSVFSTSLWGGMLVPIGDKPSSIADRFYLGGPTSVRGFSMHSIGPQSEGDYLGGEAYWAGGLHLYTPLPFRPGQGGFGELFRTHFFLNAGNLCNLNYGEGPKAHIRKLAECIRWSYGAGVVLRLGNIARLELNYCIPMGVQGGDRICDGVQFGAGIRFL

- binding (ATAD3-HA [1]): binds
- binding (Twinkle-K320E-APEX2-V5): binds
B1: SAMM50 (protein, UniProt Q8BGH2 1-469)
chain: T3 sequence
- binding (ATAD3-HA [2]): no binding (condition: cells treated with EtBr)

- binding (SAMM50-HA): binds
B2: BAK (protein, UniProt O08734 1-209)
chain: MASGQGPGPPKVGCDESPSPSEQQVAQDTEEVFRSYVFYLHQQEQETQGAAAPANPEMDNLPLEPNSILGQVGRQLALIGDDINRRYDTEFQNLLEQLQPTAGNAYELFTKIASSLFKSGISWGRVVALLGFGYRLALYVYQRGLTGFLGQVTCFLADIILHHYIARWIAQRGGWVAALNFRRDPILTVMVIFGVVLLGQFVVHRFFRS
